Results are given in words; binding and its absence hold for the method and conditions named. For some of these results: Binding seen in cells or lysates may run through a third protein. Some entries that bind do so weakly or less than the wild type.
Columns and labels:
[1] = target: T1, Orc6 (endogenous, embryo extract) (Drosophila melanogaster (endogenous in embryos)) (UniProt Q9Y1B2); assay: co-IP; antibodies against Orc6 used to precipitate Pnut from Drosophila embryo extracts (Figure S4 in File S1)
T1 sequence: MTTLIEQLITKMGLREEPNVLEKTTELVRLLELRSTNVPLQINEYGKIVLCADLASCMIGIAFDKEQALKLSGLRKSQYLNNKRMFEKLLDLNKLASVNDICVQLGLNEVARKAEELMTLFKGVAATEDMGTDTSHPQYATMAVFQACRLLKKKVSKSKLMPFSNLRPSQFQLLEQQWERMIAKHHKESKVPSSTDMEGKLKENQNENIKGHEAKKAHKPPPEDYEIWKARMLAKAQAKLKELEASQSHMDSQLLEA

Amino acid sequences for entries named in this document (tags omitted). A change or cut given only in a name is not applied to a line headed by its entry.
UniProt P40797: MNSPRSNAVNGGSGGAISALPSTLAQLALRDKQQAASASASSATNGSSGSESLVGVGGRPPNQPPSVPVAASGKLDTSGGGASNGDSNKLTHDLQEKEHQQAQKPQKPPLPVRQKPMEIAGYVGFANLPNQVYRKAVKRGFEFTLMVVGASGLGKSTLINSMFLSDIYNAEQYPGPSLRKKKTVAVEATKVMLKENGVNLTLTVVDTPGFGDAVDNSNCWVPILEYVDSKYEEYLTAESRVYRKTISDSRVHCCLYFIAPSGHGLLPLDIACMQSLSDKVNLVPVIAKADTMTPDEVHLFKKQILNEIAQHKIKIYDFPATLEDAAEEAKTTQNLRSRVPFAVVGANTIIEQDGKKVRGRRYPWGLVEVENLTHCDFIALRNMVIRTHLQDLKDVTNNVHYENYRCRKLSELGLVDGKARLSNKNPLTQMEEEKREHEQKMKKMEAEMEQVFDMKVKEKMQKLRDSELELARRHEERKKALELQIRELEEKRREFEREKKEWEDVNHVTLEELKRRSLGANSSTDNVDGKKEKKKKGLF
UniProt P54359: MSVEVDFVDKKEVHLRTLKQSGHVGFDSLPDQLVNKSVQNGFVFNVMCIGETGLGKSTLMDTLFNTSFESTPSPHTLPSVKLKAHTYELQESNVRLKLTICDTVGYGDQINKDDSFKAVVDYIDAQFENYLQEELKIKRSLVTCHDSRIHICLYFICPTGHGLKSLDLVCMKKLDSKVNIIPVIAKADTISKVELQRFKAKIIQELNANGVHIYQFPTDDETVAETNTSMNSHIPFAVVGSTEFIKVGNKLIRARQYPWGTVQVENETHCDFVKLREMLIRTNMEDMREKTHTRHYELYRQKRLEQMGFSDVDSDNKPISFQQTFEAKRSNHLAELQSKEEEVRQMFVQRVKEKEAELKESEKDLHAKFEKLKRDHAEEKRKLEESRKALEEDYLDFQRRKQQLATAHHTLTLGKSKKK
UniProt P42207: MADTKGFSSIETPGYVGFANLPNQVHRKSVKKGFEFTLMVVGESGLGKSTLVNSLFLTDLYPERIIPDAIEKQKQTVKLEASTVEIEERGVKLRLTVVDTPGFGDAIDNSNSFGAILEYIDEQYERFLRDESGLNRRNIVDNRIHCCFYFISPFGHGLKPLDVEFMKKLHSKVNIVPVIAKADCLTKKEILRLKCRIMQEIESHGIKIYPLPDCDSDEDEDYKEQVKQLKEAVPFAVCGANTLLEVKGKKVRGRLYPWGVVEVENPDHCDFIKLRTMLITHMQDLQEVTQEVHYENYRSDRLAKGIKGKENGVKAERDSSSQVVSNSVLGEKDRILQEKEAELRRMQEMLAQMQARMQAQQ

[2] = target: Recombinant septin complex carrying Pnut-T509A/S517A, (His–Pnut)–Sep2–Sep1–Sep1–Sep2–(His–Pnut) (Drosophila melanogaster) (UniProt P40797+P54359+P42207); assay: negative-stain electron microscopy of filament formation; recombinant septin complexes 40 ng/µl in GTPase buffer (25 mM HEPES-KOH pH 7.6, 2 mM MgCl2, 1 mM EGTA) with 50 mM KCl, with or without Orc6 (40 ng/µl) and 400 µM GTP, 2 hr at 22°; hexamers to filaments; both purified
[3] = target: Recombinant wild-type septin complex (His–Pnut)–Sep2–Sep1–Sep1–Sep2–(His–Pnut) (Drosophila melanogaster) (UniProt P40797+P54359+P42207); assay: as above

Row | binding [1] | Substance | other results
1 | binds | FLAG-tagged Pnut-T509A/S517A (FLAG-pnut-T509A/S517A transgene) (from UniProt P40797 1-539) | 
2 | binds | FLAG-tagged Pnut-T509E/S517E (FLAG-pnut-T509E/S517E transgene) (from UniProt P40797 1-539) | 
3 |  | Recombinant septin complex carrying Pnut-T509A/S517A, (His–Pnut)–Sep2–Sep1–Sep1–Sep2–(His–Pnut) (from UniProt P40797 1-539; P54359 1-419; P42207 1-361) | binding [2]: binds
4 |  | Recombinant wild-type septin complex (His–Pnut)–Sep2–Sep1–Sep1–Sep2–(His–Pnut) (from UniProt P40797 1-539; P54359 1-419; P42207 1-361) | binding [3]: binds
